{"source": "PubChem BioAssay AID1259405 (NCATS, 2018)", "test": "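Knock-downs that lift recombinant protein yield in hamster ovary cells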 (primary screen)", "cells": "Chinese hamster CHO-K1 ovary cells with stable secreted eGFP expression", "reagents": "single siRNA against mouse genes, 0.8 pmol siRNA per well (2 µl of 400 nM stock)", "timing": "3 days", "detection": "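Percent of the per-plate non-targeting control median for intracellular GFP per well by laser scanning cytometry and for cell viability by ATP luminescence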", "scale": "GFP, % of control: higher = more GFP per well, higher productivity; viability (ATP), % of control: higher = more viable cells (more ATP)", "rule for the call": "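Called active when intracellular GFP, relative to negative control, is at or above 120%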", "note": "The whole screen tested about 50,000 reagents; below is a part drawn at random. Of all reagents, about 4,000 (8%) got an active call. 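Mouse siRNA library applied to hamster cells; one well for each siRNA.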 The numbers tell different reagents against one gene apart."}
The opening 4 entries as a preview:
{"target gene": "Phf14", "reagent": 1, "GFP, % of control": 62.8, "viability (ATP), % of control": 66.4, "activity call": "inactive"}
{"target gene": "Phf14", "reagent": 2, "GFP, % of control": 78.5, "viability (ATP), % of control": 92.1, "activity call": "inactive"}
{"target gene": "Phf14", "reagent": 3, "GFP, % of control": 56.3, "viability (ATP), % of control": 63.8, "activity call": "inactive"}
{"target gene": "Aig1", "reagent": 1, "GFP, % of control": 50, "viability (ATP), % of control": 57.5, "activity call": "inactive"}

Main list, repeating the preview:
{"target gene": "Phf14", "reagent": 1, "GFP, % of control": 62.8, "viability (ATP), % of control": 66.4, "activity call": "inactive"}
{"target gene": "Phf14", "reagent": 2, "GFP, % of control": 78.5, "viability (ATP), % of control": 92.1, "activity call": "inactive"}
{"target gene": "Phf14", "reagent": 3, "GFP, % of control": 56.3, "viability (ATP), % of control": 63.8, "activity call": "inactive"}
{"target gene": "Aig1", "reagent": 1, "GFP, % of control": 50, "viability (ATP), % of control": 57.5, "activity call": "inactive"}
{"target gene": "Aig1", "reagent": 2, "GFP, % of control": 50.9, "viability (ATP), % of control": 65.4, "activity call": "inactive"}
{"target gene": "Aig1", "reagent": 3, "GFP, % of control": 92.9, "viability (ATP), % of control": 86.9, "activity call": "inactive"}
{"target gene": "Ear10", "reagent": 1, "GFP, % of control": 95.5, "viability (ATP), % of control": 87.5, "activity call": "inactive"}
{"target gene": "Ear10", "reagent": 2, "GFP, % of control": 78.1, "viability (ATP), % of control": 100, "activity call": "inactive"}
{"target gene": "Ear10", "reagent": 3, "GFP, % of control": 54.4, "viability (ATP), % of control": 45.7, "activity call": "inactive"}
{"target gene": "Upp2", "reagent": 1, "GFP, % of control": 97.8, "viability (ATP), % of control": 116, "activity call": "inactive"}
{"target gene": "Upp2", "reagent": 2, "GFP, % of control": 84.9, "viability (ATP), % of control": 104, "activity call": "inactive"}
{"target gene": "Upp2", "reagent": 3, "GFP, % of control": 101, "viability (ATP), % of control": 106, "activity call": "inactive"}
{"target gene": "Zfp114", "reagent": 1, "GFP, % of control": 90.4, "viability (ATP), % of control": 87.2, "activity call": "inactive"}
{"target gene": "Zfp114", "reagent": 2, "GFP, % of control": 68.5, "viability (ATP), % of control": 74.6, "activity call": "inactive"}
{"target gene": "Zfp114", "reagent": 3, "GFP, % of control": 51.6, "viability (ATP), % of control": 54.5, "activity call": "inactive"}
{"target gene": "Trex1", "reagent": 1, "GFP, % of control": 33.1, "viability (ATP), % of control": 43.4, "activity call": "inactive"}
{"target gene": "Trex1", "reagent": 2, "GFP, % of control": 58.1, "viability (ATP), % of control": 83.8, "activity call": "inactive"}
{"target gene": "Trex1", "reagent": 3, "GFP, % of control": 75, "viability (ATP), % of control": 57.4, "activity call": "inactive"}
{"target gene": "Klk4", "reagent": 1, "GFP, % of control": 80.2, "viability (ATP), % of control": 71.4, "activity call": "inactive"}
{"target gene": "Klk4", "reagent": 2, "GFP, % of control": 90.7, "viability (ATP), % of control": 54.7, "activity call": "inactive"}
{"target gene": "Klk4", "reagent": 3, "GFP, % of control": 61.7, "viability (ATP), % of control": 61.7, "activity call": "inactive"}
{"target gene": "Efna5", "reagent": 1, "GFP, % of control": 47.8, "viability (ATP), % of control": 67.5, "activity call": "inactive"}
{"target gene": "Efna5", "reagent": 2, "GFP, % of control": 52.8, "viability (ATP), % of control": 71.8, "activity call": "inactive"}
{"target gene": "Efna5", "reagent": 3, "GFP, % of control": 58.8, "viability (ATP), % of control": 57.1, "activity call": "inactive"}
{"target gene": "Pld3", "reagent": 1, "GFP, % of control": 61.3, "viability (ATP), % of control": 83.6, "activity call": "inactive"}
{"target gene": "Pld3", "reagent": 2, "GFP, % of control": 90.9, "viability (ATP), % of control": 92.9, "activity call": "inactive"}
{"target gene": "Pld3", "reagent": 3, "GFP, % of control": 44.4, "viability (ATP), % of control": 60.2, "activity call": "inactive"}
{"target gene": "Fhl1", "reagent": 1, "GFP, % of control": 100, "viability (ATP), % of control": 92.6, "activity call": "inactive"}
{"target gene": "Fhl1", "reagent": 2, "GFP, % of control": 55, "viability (ATP), % of control": 57.9, "activity call": "inactive"}
{"target gene": "Fam13c", "reagent": 1, "GFP, % of control": 78.7, "viability (ATP), % of control": 100, "activity call": "inactive"}
{"target gene": "Fam13c", "reagent": 2, "GFP, % of control": 93.4, "viability (ATP), % of control": 91.6, "activity call": "inactive"}
{"target gene": "Fam13c", "reagent": 3, "GFP, % of control": 25.2, "viability (ATP), % of control": 19.6, "activity call": "inactive"}
{"target gene": "Gpr162", "reagent": 1, "GFP, % of control": 55, "viability (ATP), % of control": 71.4, "activity call": "inactive"}
{"target gene": "Gpr162", "reagent": 2, "GFP, % of control": 63.1, "viability (ATP), % of control": 51.2, "activity call": "inactive"}
{"target gene": "Gpr162", "reagent": 3, "GFP, % of control": 61.7, "viability (ATP), % of control": 84.6, "activity call": "inactive"}
{"target gene": "Slc6a7", "reagent": 1, "GFP, % of control": 85.3, "viability (ATP), % of control": 86.3, "activity call": "inactive"}
{"target gene": "Slc6a7", "reagent": 2, "GFP, % of control": 78.3, "viability (ATP), % of control": 66.1, "activity call": "inactive"}
{"target gene": "Slc6a7", "reagent": 3, "GFP, % of control": 83.1, "viability (ATP), % of control": 89.7, "activity call": "inactive"}
{"target gene": "Mtmr6", "reagent": 1, "GFP, % of control": 88.3, "viability (ATP), % of control": 87.1, "activity call": "inactive"}
{"target gene": "Mtmr6", "reagent": 2, "GFP, % of control": 61.1, "viability (ATP), % of control": 70.6, "activity call": "inactive"}
{"target gene": "Mtmr6", "reagent": 3, "GFP, % of control": 98.8, "viability (ATP), % of control": 107, "activity call": "inactive"}
{"target gene": "Atp1a2", "reagent": 1, "GFP, % of control": 66.8, "viability (ATP), % of control": 72.6, "activity call": "inactive"}
{"target gene": "Atp1a2", "reagent": 2, "GFP, % of control": 97.5, "viability (ATP), % of control": 85.5, "activity call": "inactive"}
{"target gene": "Atp1a2", "reagent": 3, "GFP, % of control": 63.4, "viability (ATP), % of control": 47, "activity call": "inactive"}
{"target gene": "Ascc1", "reagent": 1, "GFP, % of control": 115, "viability (ATP), % of control": 106, "activity call": "inactive"}
{"target gene": "Ascc1", "reagent": 2, "GFP, % of control": 108, "viability (ATP), % of control": 95.1, "activity call": "inactive"}
{"target gene": "Ascc1", "reagent": 3, "GFP, % of control": 65.2, "viability (ATP), % of control": 73.4, "activity call": "inactive"}
{"target gene": "Gpr12", "reagent": 1, "GFP, % of control": 37.1, "viability (ATP), % of control": 57.5, "activity call": "inactive"}
{"target gene": "Gpr12", "reagent": 2, "GFP, % of control": 75.6, "viability (ATP), % of control": 80.9, "activity call": "inactive"}
{"target gene": "Gpr12", "reagent": 3, "GFP, % of control": 73.2, "viability (ATP), % of control": 83.2, "activity call": "inactive"}
{"target gene": "Ugt2b36", "reagent": 1, "GFP, % of control": 67.9, "viability (ATP), % of control": 57.6, "activity call": "inactive"}
{"target gene": "Ugt2b36", "reagent": 2, "GFP, % of control": 69.3, "viability (ATP), % of control": 80.7, "activity call": "inactive"}
{"target gene": "Ugt2b36", "reagent": 3, "GFP, % of control": 69.9, "viability (ATP), % of control": 42.5, "activity call": "inactive"}
